{"source": "PubChem BioAssay AID1224826, NIAID | 2016", "aim": "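Genes that change LPS-induced Tnf promoter activity in mouse macrophages when knocked down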 (primary screen)", "cells": "RAW264.7 G9 macrophages from mouse bearing reporters for p65 (GFP) and the Tnf promoter (mCherry)", "knock-down reagent": "siRNA pool against mouse genes, 100 nM", "timing": "16 h of LPS stimulation, after 2 days of siRNA transfection", "challenge": "bacterial lipopolysaccharide (Salmonella minnesota R595), 10 ng/ml", "detection": "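Nuclear mCherry signal of the Tnf promoter reporter measured by imaging after background removal, scaled to each plate median and turned into robust z-scores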", "reading the numbers": "Tnf reporter robust z-score: higher = stronger Tnf promoter reporter signal after LPS", "call rule": "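Called active when robust z-score is at most -1.3, matching the median of the Tlr4 knock-down control, or over 3; control wells and wells with under 50 cells never active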", "calls": "active = Tnf reporter clearly lowered or raised; inactive = no clear change in Tnf reporter", "note": "Here is one part, drawn at random, of about 17,000 reagents tested. In the full data, about 1,110 (6.6%) are marked active. 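Active means lowered or raised reporter signal; replicate intensities are raw and not normalised per plate.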 Entries without a mark were called inactive. Some reagents were tested in more than one well and are listed for each. Further read-outs or replicates are left out here."}
{"gene": "Mapk9", "fewer than 50 cells in well": "fewer than 50 cells per well; well left out of calls"}
{"gene": "Yars1", "Tnf reporter robust z-score": -0.41, "fewer than 50 cells in well": "enough cells in well"}
{"gene": "Ergic1", "Tnf reporter robust z-score": -0.84, "fewer than 50 cells in well": "enough cells in well"}
{"gene": "Map3k10", "Tnf reporter robust z-score": -0.33, "fewer than 50 cells in well": "enough cells in well"}
{"gene": "Cyld", "Tnf reporter robust z-score": 2.76, "fewer than 50 cells in well": "enough cells in well"}
{"gene": "Or6c38", "Tnf reporter robust z-score": 0.03, "fewer than 50 cells in well": "enough cells in well"}
{"gene": "Krtap5-1", "Tnf reporter robust z-score": -0.79, "fewer than 50 cells in well": "enough cells in well"}
{"gene": "Apoc4", "Tnf reporter robust z-score": -0.72, "fewer than 50 cells in well": "enough cells in well"}
{"gene": "Rpl7a", "fewer than 50 cells in well": "fewer than 50 cells per well; well left out of calls"}
{"gene": "Zfp715", "Tnf reporter robust z-score": 1.48, "fewer than 50 cells in well": "enough cells in well"}
{"gene": "Acat3", "Tnf reporter robust z-score": -0.03, "fewer than 50 cells in well": "enough cells in well"}
{"gene": "Cdk2", "Tnf reporter robust z-score": 0.33, "fewer than 50 cells in well": "enough cells in well"}
{"gene": "Popdc1", "Tnf reporter robust z-score": 0.23, "fewer than 50 cells in well": "enough cells in well"}
{"gene": "Hscb", "Tnf reporter robust z-score": -1, "fewer than 50 cells in well": "enough cells in well"}
{"gene": "Ap1s3", "Tnf reporter robust z-score": -0.99, "fewer than 50 cells in well": "enough cells in well"}
{"gene": "Cntrob", "fewer than 50 cells in well": "fewer than 50 cells per well; well left out of calls"}
{"gene": "Chrna1", "Tnf reporter robust z-score": -0.31, "fewer than 50 cells in well": "enough cells in well"}
{"gene": "Myo1e", "Tnf reporter robust z-score": -0.77, "fewer than 50 cells in well": "enough cells in well"}
{"gene": "Duox2", "Tnf reporter robust z-score": -0.06, "fewer than 50 cells in well": "enough cells in well"}
{"gene": "Fam53c", "fewer than 50 cells in well": "fewer than 50 cells per well; well left out of calls"}
{"gene": "Or4c115", "Tnf reporter robust z-score": 1.07, "fewer than 50 cells in well": "enough cells in well"}
{"gene": "Appl1", "fewer than 50 cells in well": "fewer than 50 cells per well; well left out of calls"}
{"gene": "Appl1", "fewer than 50 cells in well": "fewer than 50 cells per well; well left out of calls"}
{"gene": "Itgb3bp", "Tnf reporter robust z-score": 0.86, "fewer than 50 cells in well": "enough cells in well"}
{"gene": "Dapk2", "Tnf reporter robust z-score": -0.33, "fewer than 50 cells in well": "enough cells in well"}
{"gene": "Ipp", "Tnf reporter robust z-score": 2.87, "fewer than 50 cells in well": "enough cells in well"}
{"gene": "Ugt2a3", "fewer than 50 cells in well": "fewer than 50 cells per well; well left out of calls"}

Limited to “fewer than 50 cells in well”, for 2 of the entries above:
Chrna1 = enough cells in well
Myo1e = enough cells in well
